PubChem BioAssay AID1224830 | NIAID | 2016

- Test: 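Regulators of TLR4 signalling towards TNF-alpha in macrophage-like cells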 (primary screen)
- Cell system: human THP-1 monocytic leukaemia cells, TNF dual-luciferase reporter clone, PMA-differentiated to macrophage-like cells
- Reagent: siRNA pool against human genes, 50 nM
- Timing: LPS for 4 h, given about 3 days after siRNA transfection
- Treatment: bacterial LPS (TLR4 ligand), 10 ng/ml
- Detection: 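Ratio of firefly to renilla light, scaled to the plate median and expressed as a robust z-score per replicate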
- Reading the numbers: TNF reporter robust z-score: higher = stronger TNF reporter response to LPS
- Rule for the call: 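a well is active when its z-score exceeds 2.8 or falls below -1.5; control wells carry no call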
In all, the deposit lists about 18,000 reagents; below is an unselected part. Of all reagents, about 2,900 (16%) were called active. 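Calls are made per well; low scores hint the gene aids the LPS response, high scores that it dampens it.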 Unmarked entries are inactive. Repeated entries: four replicate wells of each siRNA pool.

How did the screen score CCL21 (C-C motif chemokine ligand 21)?
TNF reporter robust z-score: 0.55

With CCL21 (C-C motif chemokine ligand 21), how do the results read?
TNF reporter robust z-score: 0.8

What did the screen give for CCL21 (C-C motif chemokine ligand 21)?
TNF reporter robust z-score: -0.18

For CCL21 (C-C motif chemokine ligand 21), how do the results read?
TNF reporter robust z-score: -0.08

With MAGEE1 (MAGE family member E1), what does the deposit list?
TNF reporter robust z-score: -0.68

What did the screen give for MAGEE1 (MAGE family member E1)?
TNF reporter robust z-score: -1.29

How did the screen score MAGEE1 (MAGE family member E1)?
TNF reporter robust z-score: -0.76

For MAGEE1 (MAGE family member E1), what was measured?
TNF reporter robust z-score: -0.8

How did the screen score GPLD1 (glycosylphosphatidylinositol specific phospholipase D1)?
TNF reporter robust z-score: -0.51

Which result is listed for GPLD1 (glycosylphosphatidylinositol specific phospholipase D1)?
TNF reporter robust z-score: 0.27

For GPLD1 (glycosylphosphatidylinositol specific phospholipase D1), what does the deposit list?
TNF reporter robust z-score: -0.28

For GPLD1 (glycosylphosphatidylinositol specific phospholipase D1), what was measured?
TNF reporter robust z-score: -0.02

With FRG2B (FSHD region gene 2 family member B), what was measured?
TNF reporter robust z-score: 1.07

What is on record for FRG2B (FSHD region gene 2 family member B)?
TNF reporter robust z-score: 1.69

What is on record for FRG2B (FSHD region gene 2 family member B)?
TNF reporter robust z-score: 0.29

What is on record for FRG2B (FSHD region gene 2 family member B)?
TNF reporter robust z-score: 1.39

For DPPA2 (developmental pluripotency associated 2), what was measured?
TNF reporter robust z-score: -0.4

For DPPA2 (developmental pluripotency associated 2), what was measured?
TNF reporter robust z-score: 0

How did the screen score DPPA2 (developmental pluripotency associated 2)?
TNF reporter robust z-score: -0.56

For DPPA2 (developmental pluripotency associated 2), what does the deposit list?
TNF reporter robust z-score: -0.2

With ARFRP1 (ARF related protein 1), what does the deposit list?
TNF reporter robust z-score: -0.1

What is on record for ARFRP1 (ARF related protein 1)?
TNF reporter robust z-score: -0.15

What did the screen give for ARFRP1 (ARF related protein 1)?
TNF reporter robust z-score: 0.08

With ARFRP1 (ARF related protein 1), what does the deposit list?
TNF reporter robust z-score: -0.22

With RPS4Y1 (ribosomal protein S4 Y-linked 1), how do the results read?
TNF reporter robust z-score: -1

With RPS4Y1 (ribosomal protein S4 Y-linked 1), what does the deposit list?
TNF reporter robust z-score: 0.51

How did the screen score RPS4Y1 (ribosomal protein S4 Y-linked 1)?
TNF reporter robust z-score: -0.48

For RPS4Y1 (ribosomal protein S4 Y-linked 1), what was measured?
TNF reporter robust z-score: 0.3

Which result is listed for HNRNPH2 (heterogeneous nuclear ribonucleoprotein H2)?
TNF reporter robust z-score: 0.14

Which result is listed for HNRNPH2 (heterogeneous nuclear ribonucleoprotein H2)?
TNF reporter robust z-score: -0.88

With HNRNPH2 (heterogeneous nuclear ribonucleoprotein H2), what was measured?
TNF reporter robust z-score: -0.26

Which result is listed for HNRNPH2 (heterogeneous nuclear ribonucleoprotein H2)?
TNF reporter robust z-score: 0.98

What is on record for MED6 (mediator complex subunit 6)?
TNF reporter robust z-score: -0.45

How did the screen score MED6 (mediator complex subunit 6)?
TNF reporter robust z-score: -0.3

How did the screen score MED6 (mediator complex subunit 6)?
TNF reporter robust z-score: -0.27

For MED6 (mediator complex subunit 6), how do the results read?
TNF reporter robust z-score: 0.43

For GIT2 (GIT ArfGAP 2), what was measured?
TNF reporter robust z-score: -0.75

How did the screen score GIT2 (GIT ArfGAP 2)?
TNF reporter robust z-score: -0.56

What did the screen give for GIT2 (GIT ArfGAP 2)?
TNF reporter robust z-score: 0.34

For GIT2 (GIT ArfGAP 2), how do the results read?
TNF reporter robust z-score: -0.07

What is on record for ADAM32 (ADAM metallopeptidase domain 32)?
TNF reporter robust z-score: 0.05

What is on record for ADAM32 (ADAM metallopeptidase domain 32)?
TNF reporter robust z-score: 0.77

With ADAM32 (ADAM metallopeptidase domain 32), what was measured?
TNF reporter robust z-score: -0.06

How did the screen score ADAM32 (ADAM metallopeptidase domain 32)?
TNF reporter robust z-score: 0.58

With SLC8A2, how do the results read?
TNF reporter robust z-score: -1.33

With SLC8A2, what does the deposit list?
TNF reporter robust z-score: -0.3

What is on record for SLC8A2?
TNF reporter robust z-score: -0.94

For SLC8A2, what was measured?
TNF reporter robust z-score: 0.49

8 entries already listed, ordered by “TNF reporter robust z-score”, descending.
ADAM32 (ADAM metallopeptidase domain 32): TNF reporter robust z-score = 0.77
ADAM32 (ADAM metallopeptidase domain 32): TNF reporter robust z-score = 0.58
GIT2 (GIT ArfGAP 2): TNF reporter robust z-score = 0.34
ADAM32 (ADAM metallopeptidase domain 32): TNF reporter robust z-score = 0.05
ADAM32 (ADAM metallopeptidase domain 32): TNF reporter robust z-score = -0.06
GIT2 (GIT ArfGAP 2): TNF reporter robust z-score = -0.07
GIT2 (GIT ArfGAP 2): TNF reporter robust z-score = -0.56
SLC8A2: TNF reporter robust z-score = -1.33
